Data set [1] has as its target MBP-MBD2 (Homo sapiens) (UniProt Q9UBB5). Put plainly: pull-down western blot. The following applies: pulldown: 50 mM Tris pH 8, 150 mM NaCl, 1 mM DTT, 0.25% IGEPAL, dA:dT competitor, 4 C overnight, recombinant protein, protein details: N-terminal MBP.
Data set [2] has as its target MBP-RFX5 (Homo sapiens) (UniProt P48382). The data set is described as follows: pull-down dot blot. The following applies: pulldown: 50 mM Tris pH 8, 150 mM NaCl, 1 mM DTT, 0.25% IGEPAL, dA:dT competitor, 4 C overnight, protein in a lysate after overexpression, residues 1-616, protein details: N-terminal MBP, C-terminal His.
Data set [3] concerns the target T1, MBP-RFXANK (Homo sapiens) (UniProt O14593).
T1 sequence (looked up): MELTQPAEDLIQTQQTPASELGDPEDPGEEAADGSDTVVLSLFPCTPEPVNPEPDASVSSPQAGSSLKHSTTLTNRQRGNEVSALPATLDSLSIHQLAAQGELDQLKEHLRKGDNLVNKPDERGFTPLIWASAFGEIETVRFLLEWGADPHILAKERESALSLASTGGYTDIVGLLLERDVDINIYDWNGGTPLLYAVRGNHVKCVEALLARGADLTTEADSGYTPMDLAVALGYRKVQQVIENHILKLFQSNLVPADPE
The data set is described as follows: pull-down dot blot. The settings on record: pulldown: 50 mM Tris pH 8, 150 mM NaCl, 1 mM DTT, 0.25% IGEPAL, dA:dT competitor, 4 C overnight, protein in a lysate after overexpression, residues 1-260, protein details: N-terminal MBP, C-terminal His.

Chains of the proteins cited; added tags and fusions are not shown. A change or cut given only in a name is not applied to a line headed by its entry. A line that says so, or that is headed by a name, gives the form on record, which may keep a tag or linker. Residues count along the entry.
UniProt Q9UBB5: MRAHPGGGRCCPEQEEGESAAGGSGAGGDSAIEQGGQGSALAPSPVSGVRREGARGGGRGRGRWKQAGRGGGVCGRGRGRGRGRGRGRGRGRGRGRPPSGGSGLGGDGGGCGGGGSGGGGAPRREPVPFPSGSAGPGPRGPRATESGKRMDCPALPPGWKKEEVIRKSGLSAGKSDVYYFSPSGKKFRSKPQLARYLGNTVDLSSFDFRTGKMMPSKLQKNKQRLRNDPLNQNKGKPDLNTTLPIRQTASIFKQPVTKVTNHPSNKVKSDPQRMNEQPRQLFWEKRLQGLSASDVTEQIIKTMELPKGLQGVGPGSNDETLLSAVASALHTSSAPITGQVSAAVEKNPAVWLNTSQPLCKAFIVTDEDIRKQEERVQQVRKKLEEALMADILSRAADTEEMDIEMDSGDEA
UniProt P48382, 75-168: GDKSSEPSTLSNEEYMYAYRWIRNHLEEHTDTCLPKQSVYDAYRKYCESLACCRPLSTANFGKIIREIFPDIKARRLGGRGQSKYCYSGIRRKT
UniProt P61244, whole entry: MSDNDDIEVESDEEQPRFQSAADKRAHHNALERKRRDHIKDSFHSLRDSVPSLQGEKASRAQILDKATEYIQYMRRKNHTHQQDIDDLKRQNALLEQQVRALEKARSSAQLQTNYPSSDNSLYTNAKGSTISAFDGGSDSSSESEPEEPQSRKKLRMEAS
MBP-MYC (Homo sapiens), one chain, as listed by the source: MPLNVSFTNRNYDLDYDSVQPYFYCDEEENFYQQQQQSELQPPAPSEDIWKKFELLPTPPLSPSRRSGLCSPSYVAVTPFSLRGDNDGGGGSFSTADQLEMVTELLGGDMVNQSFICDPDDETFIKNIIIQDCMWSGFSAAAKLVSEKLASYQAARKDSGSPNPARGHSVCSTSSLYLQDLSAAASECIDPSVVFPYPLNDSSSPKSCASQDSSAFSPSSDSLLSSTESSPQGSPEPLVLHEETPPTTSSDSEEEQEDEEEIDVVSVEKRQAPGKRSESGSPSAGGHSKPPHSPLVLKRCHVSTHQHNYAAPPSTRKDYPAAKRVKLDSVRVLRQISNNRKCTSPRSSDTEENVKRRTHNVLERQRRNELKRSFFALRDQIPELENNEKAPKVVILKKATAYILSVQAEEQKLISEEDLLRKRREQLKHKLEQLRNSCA

The subject of data set [4] is MBP-MYC (Homo sapiens). The data set is described as follows: pull-down dot blot. The settings on record: pulldown: 50 mM Tris pH 8, 150 mM NaCl, 1 mM DTT, 0.25% IGEPAL, dA:dT competitor, 4 C overnight, protein in a lysate after overexpression, residues 1-439, protein details: N-terminal MBP, C-terminal His.
Data set [5] addresses MBP-MAX (Homo sapiens) (UniProt P61244). The data set is described as follows: pull-down dot blot. The following applies: pulldown: 50 mM Tris pH 8, 150 mM NaCl, 1 mM DTT, 0.25% IGEPAL, dA:dT competitor, 4 C overnight, protein in a lysate after overexpression, residues 1-160, protein details: N-terminal MBP, C-terminal His.
The target of data set [6] is RFX5 DBD (Homo sapiens) (UniProt P48382). Put plainly: EMSA. The following applies: EMSA: 20 mM HEPES, 30 mM KCl, 1 mM EDTA, 1 mM (NH4)2SO4, 0.2% Tween 20, 1 mM DTT, 5 uM dA:dT competitor, 2 nM DNA, 20 min, 21 C (pH not stated), recombinant protein, residues 75-168, protein details: MBP removed by TEV, C-terminal His.
Setting [7] is: hmC in one strand outside primers, other strand unmodified, strand order not stated explicitly.
Setting [8] is: hmC at all C of both strands outside primers (CpG and CpH).
[9] abbreviates: hmC in one strand, mC in the other, outside primers, strand order not stated explicitly.
Setting [10] is: mC at all C of both strands outside primers (CpG and CpH).

For some of these results: The comparison behind a weaker result is the experiment's own reference, which may not be listed here. For some of these results: At least one result comes from cells or an extract, where the contact may be indirect. For some of these results: No signal at the amounts used counts as a negative. For some of these results: At least one verdict was read from the data and is not stated in words by the source. For some of these results: Tags and fusion partners may be left off the protein sequences shown. For some of these results: Construct, isoform or probe ends are uncertain for at least one entry.

Regarding “CTGGGCGGAAACCAAGTACGCAACTTGCTCTTACACGCCTCAGCGAGAGAGCGAGTCCTACCATTGGGTAGGCAGCCCGCCTTTCCTCTGCAAGGCCCTCCTTTCACCCTCCCTCATTGGGCGGGGCAGTAGATAAGGGGCGGGGATTAGGCCGGGCTTGTGGTGCGCTGCTCCCTCCTCCTTACCCCCCCCTCCCTGTCCGGTCCGGGTTCGCTTGCCTCGTCAGCGTCCGCGTTTTTCC (double strand) [Sp1 probe mC/mC]”, the binding result in data set [1] (in mouse brain nuclear extract, mC at all C of both strands outside primers, label: 5'-biotin) is reported as “binds”.

Take “TTTCCAAAGCCCATTCCCTCTTTAGCCAGAGCCGGGGTGTGCAGACGGCAGTCACTAGGGGGCGCTCGGCCACCACAGGGAAGCTGGGTGAATGGAGCGAGCAGCGTCTTCGAGAGTGAGGACGTGTGTGTCTGTGTGGGTGAGTGAGTGTGTGCGTGTGGGGTTGAGGGCGTTGGAGCGGGGAGAAGGCCAGGGGTCACT (double strand) [VEGFA PCR probe hmC/C]”: the binding result in data set [1] (1 nM in HEK293T nuclear extract, hmC in one strand outside primers, other strand unmodified, strand order not stated explicitly) is listed as “no binding”; in data set [2] (setting [7]), “binds more weakly”; in data set [3] (setting [7]), “no binding”.

As to “TTTCCAAAGCCCATTCCCTCTTTAGCCAGAGCCGGGGTGTGCAGACGGCAGTCACTAGGGGGCGCTCGGCCACCACAGGGAAGCTGGGTGAATGGAGCGAGCAGCGTCTTCGAGAGTGAGGACGTGTGTGTCTGTGTGGGTGAGTGAGTGTGTGCGTGTGGGGTTGAGGGCGTTGGAGCGGGGAGAAGGCCAGGGGTCACT (double strand) [VEGFA PCR probe hmC/hmC]”, the binding result in data set [1] (1 nM in HEK293T nuclear extract, hmC at all C of both strands outside primers (CpG and CpH)) is “no binding”; in data set [4] (setting [8]) it was “binds”; in data set [2] (setting [8]), “binds more weakly”; in data set [3] (setting [8]) it was “no binding”; in data set [5] (setting [8]) it was “binds”.

“TTTCCAAAGCCCATTCCCTCTTTAGCCAGAGCCGGGGTGTGCAGACGGCAGTCACTAGGGGGCGCTCGGCCACCACAGGGAAGCTGGGTGAATGGAGCGAGCAGCGTCTTCGAGAGTGAGGACGTGTGTGTCTGTGTGGGTGAGTGAGTGTGTGCGTGTGGGGTTGAGGGCGTTGGAGCGGGGAGAAGGCCAGGGGTCACT (double strand) [VEGFA PCR probe hmC/mC]”: the binding result in data set [6] (setting [9]) is on record as “binds more weakly”; in data set [1] (1 nM in HEK293T nuclear extract, hmC in one strand, mC in the other, outside primers, strand order not stated explicitly) it was “binds more weakly”; in data set [2] (similar to mC/mC, hmC in one strand, mC in the other, outside primers, strand order not stated explicitly) it was “binds”; in data set [3] (setting [9]) it was “no binding”.

On to “TTTCCAAAGCCCATTCCCTCTTTAGCCAGAGCCGGGGTGTGCAGACGGCAGTCACTAGGGGGCGCTCGGCCACCACAGGGAAGCTGGGTGAATGGAGCGAGCAGCGTCTTCGAGAGTGAGGACGTGTGTGTCTGTGTGGGTGAGTGAGTGTGTGCGTGTGGGGTTGAGGGCGTTGGAGCGGGGAGAAGGCCAGGGGTCACT (double strand) [VEGFA PCR probe mC/mC]”, for which the binding result in data set [6] (about six sites in probe, mC at all C of both strands outside primers (CpG and CpH)) was “binds”; in data set [1] (1 nM in HEK293T nuclear extract, mC at all C of both strands outside primers (CpG and CpH)) it was “binds”; in data set [4] (setting [10]), “binds more weakly”; in data set [2] (setting [10]), “binds”; in data set [3] (setting [10]) it was “no binding”; in data set [5] (setting [10]) it was “binds more weakly”.

For the origin of these results see publication PMC13042984.
